PubChem BioAssay AID1347075 (National Center for Advancing Translational Sciences (NCATS), 2019)
In all, about 400,000 compounds went through this assay and about 5,500 (1.4%) were called active. Inconclusive results, whose numbers are uncertain, are shown with a selection of clear calls. The call rests on the fitted dose curve; in most records, active means well fitted cell-killing curve with a large enough effect; inconclusive means small, poorly fitted or top-dose-only effect, or effect the other way; inactive means flat fitted curve, though single readings scatter. Where the call is inconclusive, the potency comes from a doubtful curve fit.

assay: qHTS assay for MDR1-selective chemotherapeutics: Primary screen using the parental adenocarcinoma cell KB-3-1; conditions: KB-3-1 viability, CellTiter-Glo ATP luminescence, 72 h; activity change, negative = cytotoxic: at 46.1 µM (top of the series); further: nearly all actives have a fitted effect of over 60% in size
Summary of the method: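 Using CellTiter-Glo luminescence, growth of non-resistant KB-3-1 adenocarcinoma cells is assessed 72 h after pin-tool compound addition at 37 °C. Normalized responses across the concentration series yield fitted curves.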
On the % scale 0 is the no-effect control and ±100 the full control effect; potency means the concentration at half of the fitted maximal effect.

| Structure (SMILES) | Potency | activity change, negative = cytotoxic |
| --- | --- | --- |
| COc1ccc(-n2c(C)nc(=O)c(-c3ccccc3)c2C)cc1 | inconclusive: 13 µM [rising, partial curve] | – |
| Cn1ccsc1=NC(=O)c1ccc(CS(C)(=O)=O)cc1 | – | inconclusive: 15.8% |
| COCCCNC(=O)c1c(N)n(-c2ccccc2)c2nc3ccccc3nc12 | – | inactive: -24% |
| Cc1cccc(C(=O)N2CCC(=O)N(C(COCc3cccc(Cl)c3)Cc3ccccc3)CC2)c1 (stereo unspecified) | inconclusive: 20.6 µM [cytotoxic, single point] | – |
| CN(CC(=O)Nc1ccc(Cl)cc1)c1ccc(S(=O)(=O)N2CCCCC2)cc1[N+](=O)[O-] | inconclusive: 18.4 µM [cytotoxic, single point] | – |
| Cc1[nH]n(-c2ccc(Cl)cc2)c(=O)c1/C=N/n1c(C)nc2ccccc2c1=O | inconclusive: 29.1 µM [cytotoxic, single point] | – |
| CC(C)CNC(=O)N1[C@H](c2cccs2)[C@@H](C)C(=O)[C@@H](C)[C@@H]1c1cccs1 | – | inactive: -1.22% |
| C[C@@H]1COC(=O)[C@@H](Cc2ccc(F)cc2)C/C=C\C[C@@H](CC(=O)N[C@H](CO)Cc2ccccc2)C(=O)N1 | inconclusive: 18.4 µM [rising, partial curve, poor fit] | – |
| Cc1ccc(S(=O)(=O)N2CC3(O)CN(C(=O)OC(C)C)N(C(=O)OC(C)C)CC3(OC(=O)NCC3CCCCC3)C2)cc1 (stereo unspecified) | inconclusive: 29.1 µM [cytotoxic, single point] | – |
| Cc1ccc(C)c(Nc2nc(N)c3ccccc3n2)c1 | inconclusive: 0.0058 µM [rising, full curve, poor fit] | – |
| CC(C)Nc1nc(NC(C)C)nc(C(N)=O)n1 | – | inactive: 3.32% |
| O=C(COC(=O)CCCOc1ccc(Cl)cc1Cl)NCc1ccccc1 | – | inactive: -0.972% |
| O=C(Nc1ccccn1)c1cc2ccccc2cc1O | – | inactive: 15.4% |
| O=C(Nc1nccs1)c1ccc2sc([C@H]3C[C@H](O)[C@@H](CO)O3)nc2c1 | – | inactive: 0% |
| O=C1NC[C@H](CCCCN2C[C@H](Cc3ccccc3)N(CCC3CCCCC3)C(=O)C2=O)N(CCC2CCCCC2)C1=O | inconclusive: 29.1 µM [cytotoxic, single point] | – |
| Cc1ccc(CCNS(=O)(=O)c2ccc3c(c2)CC(C)N3C(=O)C2CCC2)cc1 (stereo unspecified) | – | inactive: -10.4% |
| CCC(C(=O)NC1CCCC1)N(C(=O)c1snc(C(N)=O)c1N)c1ccc(OC)cc1 (stereo unspecified) | – | inactive: -4.34% |
| CCCCc1c(C)c2cc(C)ccc2[nH]c1=O | – | inactive: 19% |
| COc1ccc(-c2nc(CSCC(=O)NCCc3ccccc3)c(C)o2)cc1 | inconclusive: 32.6 µM [cytotoxic, single point] | – |
| CN(Cc1ccccc1)c1ccc(-c2nc(-c3ccccn3)no2)cc1[N+](=O)[O-] | inconclusive: 16.4 µM [cytotoxic, single point] | – |
| Nc1ncc2[nH]c(N)nc2n1 | – | inactive: 28.1% |
| CCn1c(CN2CCC(C)CC2)nc2cc(NC(=O)COc3ccc(Cl)c(C)c3)ccc21 | inconclusive: 32.6 µM [cytotoxic, single point] | – |
| Cc1cc(C)c(C)c(S(=O)(=O)Nc2ccc(OCC(=O)O)cc2)c1C | inconclusive: 29.1 µM [rising, single point] | – |
| Cc1cc(C)nc(NC(=O)c2cc([N+](=O)[O-])cc([N+](=O)[O-])c2)n1 | – | inactive: -6.3% |

Single records, as listed above. Order of values: Potency	activity change, negative = cytotoxic
`Cc1[nH]n(-c2ccc(Cl)cc2)c(=O)c1/C=N/n1c(C)nc2ccccc2c1=O` reads inconclusive: 29.1 µM [cytotoxic, single point]	–
`CC(C)Nc1nc(NC(C)C)nc(C(N)=O)n1` reads –	inactive: 3.32%
`Cc1cc(C)nc(NC(=O)c2cc([N+](=O)[O-])cc([N+](=O)[O-])c2)n1` reads –	inactive: -6.3%
`CN(Cc1ccccc1)c1ccc(-c2nc(-c3ccccn3)no2)cc1[N+](=O)[O-]` reads inconclusive: 16.4 µM [cytotoxic, single point]	–

(more compounds)

| Structure (SMILES) | Potency | activity change, negative = cytotoxic |
| --- | --- | --- |
| CCOc1[nH]n(-c2ccccc2)c(=O)c1C=Nc1ccccc1 | – | inactive: 0% |
| O=C1CCN(Cc2ccc(O)cc2)CCN1[C@H](CO)Cc1ccccc1 | inactive | – |
| CC(=O)c1ccc(N2CCN(C(=O)CCC(=O)Nc3ccc4nc(N5CCN(C)CC5)cc(C)c4c3)CC2)cc1 | – | inactive: 1.09% |
| COc1ccc(-c2oc3ncn(CCN4CCOCC4)c(=N)c3c2-c2ccc(OC)cc2)cc1 | inconclusive: 29.1 µM [cytotoxic, single point] | – |
| Cc1cc(C)cc(C(=O)Nc2cccnc2)c1 | – | inactive: 16.4% |
| C/C(=N/NC(=O)C(O)(c1ccccc1)c1ccccc1)c1ccc([N+](=O)[O-])o1 | inconclusive: 29.1 µM [rising, single point] | – |
| C=CCn1c(=O)[nH]c2nc3cc(N=CN(C)C)c(C)cc3nc2c1=O | inconclusive: 13 µM [rising, partial curve, poor fit] | – |
| COc1cc(C)ccc1OCc1cc(C(=O)N2CCCCCCC2)no1 | – | inactive: 6.85% |
| Cc1nc2ccccn2c1C(=O)CSc1ccccc1Cl | inconclusive: 6.51 µM [cytotoxic, partial curve, poor fit] | – |
| Cc1ccccc1OCCn1c(-c2ccc(Cl)cc2)nc2ccccc2c1=O | – | inactive: 0.825% |
| O=C(OCc1cc(=O)n2nc(C3CCCCC3)sc2n1)c1ccc(F)cc1 | – | inactive: 8.2% |
| N#Cc1ccc(C(=O)N2CCN(c3ncccn3)CC2)cc1 | – | inactive: -0.611% |
| CCCCS(=O)(=O)/C=C\C=C/S(=O)(=O)CCCC | active: 7.31 µM | – |
| COc1ccc(-c2noc(-c3cccnc3N3CCN(c4ccc(OC)cc4)CC3)n2)cc1 | – | inactive: 7.99% |
| CSc1nnc(-c2ccc([N+](=O)[O-])cc2)o1 | inconclusive: 23.1 µM [cytotoxic, single point] | – |
| Cc1ccc(C)c(OCC(=O)N/N=C/c2c(C)nn(-c3ccccc3)c2Cl)c1C | inconclusive: 20.6 µM [cytotoxic, single point] | – |
| N#CCCN(C(=O)Nc1ccc(Cl)c(Cl)c1)c1ccccc1 | – | inactive: -5.47% |
| COC(=O)c1c(NC(=O)/C(C#N)=C/c2ccccc2)sc2c1CCC2 | – | inactive: -1.1% |
| COc1ccc(N=c2oc3cc(O)ccc3cc2C(=O)Nc2ccccn2)cc1OC | inconclusive: 29.1 µM [cytotoxic, single point] | – |
| COc1ccc(CCNCC(O)Cn2c3ccccc3c3ccccc32)cc1OC (stereo unspecified) | inconclusive: 20.6 µM [cytotoxic, single point] | – |
| CCc1ccc(/C(C)=N/NC(=O)CNC(=O)/C=C/c2ccccc2OC)cc1 | inconclusive: 18.4 µM [rising, single point] | – |
| O=S1(=O)CCOC[C@H](c2ccccc2)N1Cc1ccccc1 | inconclusive: 29.1 µM [cytotoxic, single point] | – |
| N/C(=N\OC(=O)CCCOc1ccc(Cl)cc1Cl)c1ccccn1 | inconclusive: 2.06 µM [cytotoxic, partial curve] | – |
| COc1cc(OC)c(OC)cc1/C=C/c1nccc2ccccc12 | inconclusive: 29.1 µM [cytotoxic, single point] | – |

| Structure (SMILES) | Potency | activity change, negative = cytotoxic |
| --- | --- | --- |
| O=S(=O)(c1ccccc1)N(Cc1nc(-c2ccccc2)no1)C1CCCCC1 | active: 25.9 µM | – |
| CC(=O)c1ccc(NS(=O)(=O)c2ccc3[nH]c4c(c3c2)CCCC4)cc1 | inconclusive: 1.64 µM [cytotoxic, full curve] | – |
| Cc1cc(C)c(S(=O)(=O)N2CCN(c3ccc([N+](=O)[O-])c(-n4nc(C)cc4C)c3)CC2)c(C)c1 | – | inactive: 1.9% |
| CCOC(=O)N1CCN(c2c(NCCCN3CCCCCC3)c(=O)c2=O)CC1 | – | inactive: 19.4% |
| COc1cccc(Cn2c(NCc3cccnc3)nc3c2c(=O)n(C)c(=O)n3C)c1 | active: 3.66 µM | – |
| C(=NN1CCCCCC1)c1ccc2ccccc2n1 | inconclusive: 18.4 µM [cytotoxic, single point] | – |
| O=C1C(=O)N(CCN2CCOCC2)C(c2ccc([N+](=O)[O-])cc2)/C1=C(/O)c1ccc2c(c1)OCO2 (stereo unspecified) | inconclusive: 18.4 µM [rising, single point] | – |
| OCc1nc2ccccc2n1CCCOc1ccc(Br)cc1 | inconclusive: 16.4 µM [cytotoxic, single point] | – |
| Cn1c(=O)c2c(nc(N3CCN(Cc4ccccc4)CC3)n2CCCc2ccccc2)n(C)c1=O | inconclusive: 29.1 µM [cytotoxic, single point] | – |
| NC(=O)c1ccc(C(F)(F)F)n(Cc2c(Cl)cccc2Cl)c1=O | inconclusive: 29.1 µM [cytotoxic, single point] | – |
| CCOC(=O)c1cnc2c(ccc3ccccc32)c1NCCCN(C)C | inconclusive: 18.4 µM [cytotoxic, single point] | – |
| CCOc1ccc(NC(=O)C2CCCCN2S(=O)(=O)c2ccccc2)cc1 (stereo unspecified) | inconclusive: 29.1 µM [cytotoxic, single point] | – |
| CCc1ccc(-n2c(=S)sc3c(=O)n(-c4ccccc4C)c(SCC(=O)O)nc32)cc1 | – | inactive: 13.3% |
| CC1CCN(S(=O)(=O)N2CCC(C(=O)NCCC3=CCCCC3)CC2)CC1 | – | inactive: -0.822% |
| Cc1nc2ccc(S(=O)(=O)Nc3cccc(-c4nc5cccnc5s4)c3)cc2s1 | inconclusive: 29.1 µM [cytotoxic, partial curve, poor fit] | – |
| Nc1nc(=S)[nH]c2c1C1(CCCCC1)Cc1ccccc1-2 | inconclusive: 23.1 µM [cytotoxic, single point] | – |
| COc1c(Br)cc([N+](=O)[O-])c(OC)c1C(=O)NC(=O)Nc1cc(Cl)cc(Cl)c1 | inconclusive: 29.1 µM [cytotoxic, single point] | – |
| O=[N+]([O-])c1ccc(N=Nc2ccc(O)cc2O)cc1 | inconclusive: 25.9 µM [cytotoxic, partial curve, poor fit] | – |
| O=[N+]([O-])c1ccc(O)c(Nc2ncnc3ccc(Br)cc23)c1 | inconclusive: 29.1 µM [cytotoxic, single point] | – |
| CCOc1ccc(NS(=O)(=O)c2cccc(C(=O)N3CCN(C/C=C/c4ccccc4)CC3)c2)cc1 | active: 18.4 µM | – |
| CSc1nnc(NC(=O)c2cc3ccccc3oc2=O)s1 | inconclusive: 23.1 µM [rising, single point] | – |
| O=C1C(c2[nH]c3ccc(S(=O)(=O)O)cc3c2O)=Nc2ccc(S(=O)(=O)O)cc21 | inconclusive: 0.0003 µM [cytotoxic] | – |
| CC(C)NS(=O)(=O)c1ccc(NC(=O)C2CCCCC2)cc1 | – | inconclusive: 3.32% |
